Article PMC10897310

The chains behind the UniProt entries cited, without tags or fusion partners. Where a name states a change or a piece, a line headed by the entry shows the natural chain unless it says otherwise.
UniProt Q96HS1: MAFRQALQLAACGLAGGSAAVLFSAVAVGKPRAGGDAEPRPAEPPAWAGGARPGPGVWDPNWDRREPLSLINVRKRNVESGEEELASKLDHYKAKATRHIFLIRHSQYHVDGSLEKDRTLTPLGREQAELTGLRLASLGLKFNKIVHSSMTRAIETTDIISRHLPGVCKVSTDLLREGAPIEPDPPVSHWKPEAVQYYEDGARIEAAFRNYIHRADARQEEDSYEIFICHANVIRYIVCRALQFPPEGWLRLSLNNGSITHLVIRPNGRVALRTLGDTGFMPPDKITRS

Biological target: glutathione S-transferase (GST)-fused PGAM5 (not stated (human or mouse cDNA cloned)) (UniProt Q96HS1)
Test: pull-down; GST pull-down with GST-PGAM5 on glutathione-agarose beads and His-MARCH2; blots with anti-GST and anti-His; both purified

binding: binds
B1: His-MARCH2 (enzyme, UniProt Q9P0N8 1-246)
chain: MTTGDCCHLPGSLCDCSGSPAFSKVVEATGLGPPQYVAQVTSRDGRLLSTVIRALDTPSDGPFCRICHEGANGECLLSPCGCTGTLGAVHKSCLEKWLSSSNTSYCELCHTEFAVEKRPRPLTEWLKDPGPRTEKRTLCCDMVCFLFITPLAAISGWLCLRGAQDHLRLHSQLEAVGLIALTIALFTIYVLWTLVSFRYHCQLYSEWRKTNQKVRLKIREADSPEGPQHSPLAAGLLKKVAEETPV

No constants are given. Whether binding was seen depends on the method and setting. A result given as binding can be weak or reduced; the word gives no strength. Sequences can lack the tags named with a protein.
